The results in this text go back to US20240368215 (published 2024).

A short description of this data set: Fmoc solid-phase peptide synthesis in flow; IBCF with DIEA and DMBA. The settings on record: coupling step.

Substance “H-Glu(OtBu)-Ala-Glu(OtBu)-Lys(Boc)-Leu-O-TIPS2” came in with a step yield of 96%.

Regarding H-Ala-Glu(OtBu)-Lys(Boc)-Leu-O-TIPS2, the step yield was determined as 95%.
